Data published in the supplement of paper PMC5949888.
Most values lie at the floor of the assay. Slopes are relative: functional sequences can read slightly below zero.

Test system: Saccharomyces cerevisiae PS128 hsf1 delta, HSF1(1-493) fusion
Assay: growth estimate (transactivation domain function in HSF1 fusion, heat-shock survival) (a.u. (slope of normalised read count over time)); higher = stronger growth at 37°C, i.e. more transactivation activity
Conditions: library: random library

Row | Substance | growth estimate
1 | NVVVIG | < -0.25
2 | SERYRDVCRRVVKSFHSSRR | < -0.25
3 | NRVFVIVSASLMGIHSP | < -0.25
4 | RGTGPNIGFVVL | < -0.25
5 | TGSNRFGSGSWHCTAI | < -0.25
6 | SGREPSTRERDMVITWPSRR | < -0.25
7 | TGHSLYSLV | < -0.25
8 | QIGLYELLINDLRGYEWGAL | -0.198
9 | SQTLTGVTPGL | < -0.25
10 | EHMVLVVTTVLLKLGIRCPA | < -0.25
11 | AGTYRLRGDRP | < -0.25
12 | PATGEGGQLGDGRPPQGSLG | < -0.25
13 | WRGLHRSVYASLPGEMPIRP | < -0.25
14 | YRSGSRSGQAYLLRIISAKA | < -0.25
15 | KNQRIIGRSRLDRSAANAYT | < -0.25
16 | YTPE | < -0.25
17 | TVGHNMLGSVDRECPGAIRY | < -0.25
18 | PETSLRRISEDTVIAAIGPS | < -0.25
19 | GAEE | < -0.25
20 | NLGITIGGLPCEHFGS | < -0.25
21 | RVSRTYYILGHGPVVIAETK | < -0.25
22 | HVRAIAPTPLFEQ | < -0.25
23 | LPRPAFYV | < -0.25
24 | TFAA | -0.245
25 | KWSS | < -0.25

Row | Substance | growth estimate
26 | LPKSRGVSFPFRNTRRSIHI | < -0.25
27 | GGGEGVILQLPPAWILYT | < -0.25
28 | MRVAHHA | < -0.25
29 | RREEIYLRHCRQVRGDPRDL | -0.25
30 | RCGENITTYARVTLR | < -0.25
31 | RGPASVARAIEVDRP | < -0.25
32 | WIFDYSHGYM | < -0.25
33 | RFRESRQE | < -0.25
34 | LLGSR | < -0.25
35 | TLFYLVHRADARTLLYSAAI | < -0.253
36 | LFQLNSAHVIFRWSQPCHES | < -0.25
37 | FISCGPRVNKHRNGRRPPFG | < -0.25
38 | VATRGSPCRGRQRADTTIGS | < -0.25
39 | SATREHRSKDQSQELTSRGL | < -0.25
40 | AMSG | < -0.25
41 | GSSCRISKSRVSSL | < -0.25
42 | GLCPAMLNIDCR | < -0.25
43 | LARY | < -0.25
44 | GRGPV | -0.232
45 | KSPIDDPSTLITGIKQHERE | -0.079
46 | HSRYTSSWQNCRLLR | -0.232
47 | FVRSNGSSGWAHAQENGSLP | < -0.25
48 | SPEVSQESNL | < -0.25
49 | QGGYCACTLVLRAIEAAHYD | < -0.25
50 | SPLESGSGLGSWVDSIPHTA | < -0.25

Row | Substance | growth estimate
51 | SGFLSPILSHIGSLMILTLR | < -0.25
52 | RLWYFSRVCRDVGGAGGSPK | < -0.25
53 | FPDRYVSFPART | < -0.25
54 | RTSIRGLGYAFSLRYERYPR | < -0.25
55 | NVTGSLPVEWATSAVGLRVR | < -0.25
56 | FEVMSTFVAETRRHIVSL | < -0.25
57 | VPR | < -0.25
58 | PGWYQ | < -0.25
59 | PGHRTRSLTKRLRASGESSE | < -0.25
60 | VGLTEY | < -0.25
61 | GLVQTPFRPNWTGTGSLV | < -0.25
62 | STFQSSEAPGGCEAGVNMKG | < -0.25
63 | RETDNAQSTVVHYIQG | < -0.25
64 | NRQTSVIYLAGHSRSNVSGR | < -0.25
65 | ICKATHMGAEANGTNGNTFP | < -0.25
66 | VGTCACFKIQESPWNHLITD | < -0.25
67 | VFSGSGEVGLLGHQSGFTRV | < -0.25
68 | SGGQHWASHIPLSRWIHALW | < -0.25
69 | FNFQIVYARG | < -0.25
70 | DRRPA | < -0.25
71 | AVEP | < -0.25
72 | TQVGRRIGRLTRFGCELNII | < -0.25
73 | LCNLIRHCVSWFKSCLTSRL | < -0.25
74 | ILICRRVNRRSRYLVAQ | < -0.25
75 | QDSLHSTLLRSAKLKCCFGD | < -0.25

Given as labelled records: entries from further up
RTSIRGLGYAFSLRYERYPR
  growth estimate = < -0.25
NVTGSLPVEWATSAVGLRVR
  growth estimate = < -0.25
FEVMSTFVAETRRHIVSL
  growth estimate = < -0.25

Remaining list, next part

Row | Substance | growth estimate
76 | VNDHKRRGYFTSTRSVSPGA | -0.243
77 | LRSGCIYGPTSQTRRSTYRV | < -0.25
78 | SLIRIPAVATTRGSPRLSHV | < -0.25
79 | LGCGIEVGGIVTA | < -0.25
80 | LCGDTCETRTASTRLK | < -0.25
81 | VERPSPHVVGVLWWHHPTGA | < -0.25
82 | SAVQWV | < -0.25
83 | LALLERLERMVNAIGTIGTD | -0.229
84 | YIELLTEVRFFWLSHGGSPS | < -0.25
85 | TSNSLFHQ | < -0.25
86 | GGASPRKHVLGKPPVCLLV | < -0.25
87 | GPYRWLLDRVRDPDHSTRAF | < -0.25
88 | NPYVFV | < -0.25
89 | IRGLRHRWAGTERYLEQCGG | < -0.25
90 | IALLCSL | < -0.25
91 | EQFRGRKSSGRSGDSGGHVS | < -0.25
92 | RIARLA | < -0.25
93 | LWKVGYSPR | < -0.25
94 | FLYLASHRASAARTCHLLCQ | < -0.25
95 | PSLIANIKVRHLGRQYSSLV | < -0.25
96 | FGTYDMRRVVDNAYESLV | < -0.25
97 | RFYTIATTVNEDYGRH | < -0.25
98 | SGGPSGGACMRFAKLSLGLL | < -0.25
99 | DYRTVTFGIQFVIVKVKPGC | < -0.25
100 | GNIKGGKRSKGIKRGGCRDA | < -0.25

Given tab-delimited: part of the list above
Row	Substance	growth estimate
53	FPDRYVSFPART	< -0.25
58	PGWYQ	< -0.25
87	GPYRWLLDRVRDPDHSTRAF	< -0.25

(continued)

Row | Substance | growth estimate
101 | RHEPLQLNWKKLFYTSQTDK | < -0.25
102 | MFARSPQGARDQGVEVHRDR | < -0.25
103 | LHHAV | < -0.25
104 | AQRKIDVSGCSDPRIAPYSG | < -0.25
105 | ILKCQQ | < -0.25
106 | RACHSCPRSDRFPTVLVSPC | < -0.25
107 | LGRSPPGKCRDRMPRGAITE | < -0.25
108 | GIVREYLLRLKR | < -0.25
109 | LRPMEGRSAPLARTAKYACV | -0.246
110 | HWEGFRGGDWRYLSNGGCIY | < -0.25
111 | DVGD | < -0.25
112 | LFVFRYRCCGVGVQEPSRGE | < -0.25
113 | FFRL | -0.204
114 | LGGAFPVVDAWHRVRERLAC | < -0.25
115 | YNQGPRTQP | < -0.25
116 | SIVQSPFISSYVSRGI | < -0.25
117 | SRIGMTFRLNSQGG | < -0.25
118 | WVLGTRCC | < -0.25
119 | LGRGHT | < -0.25
120 | NGHGWWSLDHWFNLYWRMTC | < -0.25
121 | EILTSLRLGCSYCARCIGWV | < -0.25
122 | CMMSFCERVGQYRDIVSVAP | < -0.25
123 | ELTALAVIRFISKSPEPAVQ | < -0.25
124 | GRLPQTGDRAQHVLAPRSAT | < -0.25
125 | FADPSCRNIRSQ | < -0.25

Quoted from the listing.
For growth estimate, LGRGHT has < -0.25
For growth estimate, GIVREYLLRLKR has < -0.25
For growth estimate, ELTALAVIRFISKSPEPAVQ has < -0.25

The list goes on:

Row | Substance | growth estimate
126 | SSCVKCAGITCNVSRACEGL | < -0.25
127 | RTGKVTLLKYWPSSDILRGE | < -0.25
128 | ARTTSVRGLYPTASSAVTIT | < -0.25
129 | GAV | < -0.25
130 | WGQAVKVYGQVLCLGLGCKD | < -0.25
131 | TCNRSVRNLLGVKS | < -0.25
132 | GIKQ | < -0.25
133 | LLLGPLEVAR | < -0.25
134 | VKNDFRNETTQTIKVWPT | < -0.25
135 | IYTRPVSSWYTSAETLQTGA | < -0.25
136 | RELEFRHHQAR | < -0.25
137 | ILRLRMTKFE | < -0.25
138 | SDEAQERII | < -0.25
139 | CWKTHSLI | < -0.25
140 | TDHVLVSP | < -0.25
141 | FLGTNIRVLVAHHLTHPRNR | < -0.25
142 | FIESYRHTWELCSVHL | -0.231
143 | CIWGSRVK | < -0.25
144 | HSRGGPQLSE | < -0.25
145 | TGPTVSVRI | < -0.25
146 | RAYICGGCNCRGVWLESDYP | < -0.25
147 | PFHWAPRYTERTFLRCHRR | < -0.25
148 | LLEDDYN | < -0.25
149 | PSKTQECLQGDRNAPNRKVS | < -0.25
150 | LSGLEVPPWS | < -0.25

Row | Substance | growth estimate
151 | GTVHLLPGFARAVKRCLRDT | < -0.25
152 | QSWPYVGNTVGTVLIVMGGP | < -0.25
153 | AARLHFEVNKCNKSLWSNYG | < -0.25
154 | PASSFGA | < -0.25
155 | IGETDPKPRVRRETRHLKDM | < -0.25
156 | SGTGPDVVSNQLKTTGTRAR | < -0.25
157 | LPFGLGVVRPAIGSFNPNEY | < -0.25
158 | HTDLYGRKT | < -0.25
159 | VWLGVYEHSSLAR | < -0.25
160 | HGNGFGYRGRQVSPWAKSVR | < -0.25
161 | TGVV | < -0.25
162 | HDCILGRTAGAVIPKSIAPI | < -0.25
163 | RGFWDPRTRS | < -0.25
164 | HHREGRSLKRELLSGAALPE | < -0.25
165 | PCLLTVGSDVAKCRTPDKDS | < -0.25
166 | REVSTV | < -0.25
167 | YVGLSLLGVLGIFWRCEPPY | < -0.25
168 | SILRFVGKRPLRVLLTRLGH | < -0.25
169 | PHKKRPLGRRQ | -0.109
170 | VLLFGLYKLVSSSRPPITDG | < -0.25
171 | TFFNELSCGNVPHTTKDVDE | < -0.25
172 | RDYGTRVRLTILWSGRHF | < -0.25
173 | LLRKRGMGGS | < -0.25
174 | THTSRVHPRRAAAHHIRGFV | < -0.25
175 | PTINGPFGRHAQDPSYGAST | < -0.25

Row | Substance | growth estimate
176 | WRDISSTEKDMQPEKTVGLG | < -0.25
177 | QLGTH | < -0.25
178 | DKFTPIIGRECCSYLIQ | < -0.25
179 | YGSGSQVGIRRTALPAEIFA | < -0.25
180 | YQWYHEPNLYLCTRAIDLSL | < -0.25
181 | PSVLLPDGATY | -0.192
182 | PLLLEEKAFRGDLTTD | < -0.25
183 | FNCQGTVGLC | < -0.253
184 | DNHPQISMLQVIDLHSL | < -0.25
185 | YRSYVIVYLCL | < -0.25
186 | PALRRLLGCFTV | < -0.25
187 | GTLGVWFPNA | < -0.25
188 | ERRLSRG | < -0.25
189 | VIAIVLSKCPFSVTIR | < -0.25
190 | PDGEHFFRSGHMGTGWYRPP | < -0.25
191 | PEYTPYEFKSIDGKEWL | < -0.25
192 | LSDESGPETECPGGMGVLRG | < -0.25
193 | HALCVR | < -0.25
194 | HKEDSAPVRWNN | < -0.25
195 | NVSGCDTN | < -0.25
196 | ATILFIRHLSVFCVPDKLGL | < -0.25
197 | GQENLSMYIHERFMGRQIV | < -0.25
